Hit rate of the full screen: of about 130,000 compounds, about 1,000 (0.77%) were called active. This list was built around the results that the source calls inconclusive (neither active nor inactive); the mix of calls is not that of the screen.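 How the source made its calls: active means activation at 2 µM above a set limit, confirmed on inspection of the cell images; inconclusive means above the set limit but not confirmed on image inspection; inactive means the rest.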
Experiment: activators of insulin promoter-driven GFP, primary screen, imaging, TRM-6 cells (human fetal islet line), eGFP reporter, cell count (AID 1296;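 further: share of cells whose green reporter signal exceeds an intensity cutoff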)
Settings: at 2 µM, active compounds read high, plate-scaled: unstimulated 0, stimulated control 100
Method in brief: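 System – TRM-6 insulin promoter–eGFP reporter cells · Probe or stimulus – 0.75 µM tamoxifen as reporter inducer · Dosing – single-point 2 µM compound dose · Incubation – tamoxifen pre-incubation 15 h overnight, then compound exposure 48 h at 37 °C · Measured by – fixed-cell fluorescence microscopy, eGFP plus Hoechst · Evaluation – percent GFP-positive cells normalized to per-plate controls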
For `CCCn1c(CN2CCCCC2CC)nc2c1c(=O)n(C)c(=O)n2C` (stereo not given), the activation was active: 600%. For `COC(=O)Cc1cc(=O)[nH]c(/N=C(\N)Nc2ccc(C)cc2)n1`, the activation was inconclusive: 407%. In the case of `C=CCNC(=O)/C(=C\c1ccc(OC)cc1)NC(=O)c1ccc([N+](=O)[O-])cc1`, the activation is reported as inconclusive: 450%. With `COc1ccc(N(C(=O)c2ccco2)S(=O)(=O)c2ccc(F)cc2)cc1` the activation was active: 456%. With `Cc1ccc(N2C(=O)C(CN3CCCCC3)C2c2ccccc2)cc1` (stereo not given) the activation was inconclusive: 567%. With `COC(=O)c1ccc(/C=C/C(=O)c2cccc(OC)c2)cc1` the activation was inconclusive: 413%. With `O=C1CCCN1S(=O)(=O)c1ccccc1` the activation was inactive: 2.33%. In the case of `Cc1nnc(SCCn2c(N3CCC(C)CC3)nc3c2c(=O)n(C)c(=O)n3C)s1`, the activation is reported as inconclusive: 40.9%. In the case of `COc1ccc(Nc2nc3cc(C)ccc3cc2C#N)c(OC)c1`, the activation is reported as inconclusive: 200% [cytotoxic]. In the case of `Cc1nc2cc(C(F)(F)F)ccc2n1C1CCN(CC(=O)NC(C)(C)C)CC1`, the activation is reported as inactive: 0%. In the case of `Cc1cccc(OCCCC(=O)Nc2ccc(S(=O)(=O)Nc3onc(C)c3C)cc2)c1C`, the activation is reported as inconclusive: 507%. For `O=c1c[n+]([O-])c2ccccc2n1OCc1c(F)cccc1F`, the activation was inconclusive: 120%. With `CCC(C)(C)NC(=O)C(c1ccco1)N(C(=O)Cn1nnc2ccccc21)c1ccc2c(c1)OCO2` (stereo not given) the activation was active: 83.3%. With `COC(=O)CSc1nnc(-c2ccccc2OC)o1` the activation was inconclusive: 90.3%. In the case of `COc1ccc(-c2noc(-c3ccc(C)cc3)n2)cc1`, the activation is reported as inactive: 1.41%. In the case of `Cc1ccc2c(CN3CCCc4ccccc43)cc(=O)oc2c1C`, the activation is reported as inconclusive: 264%. With `Cc1ccc(-c2csc3ncnc(Oc4ccc5c(C)cc(=O)oc5c4)c23)cc1` the activation was inconclusive: 212% [cytotoxic]. In the case of `O=C(NCCCCNC(=O)c1ccc(Br)s1)c1ccc(Br)s1`, the activation is reported as inactive: 5.41%. For `CC(C)Cc1ccc(C(C)NC(=O)c2ccc(=O)[nH]c2)cc1` (stereo not given), the activation was active: 350%. With `COc1ccc(OC)c(-c2oc3ccccc3c(=O)c2O)c1` the activation was inconclusive: 108%. For `CCOC(=O)C1CCCN(C(=O)CC(c2ccccc2)c2ccccc2)C1` (stereo not given), the activation was inconclusive: 475%. For `O=C(Cc1cccs1)Nc1ccc(N2CCOCC2)cc1`, the activation was inactive: 114%. For `CC(C)N(Cc1nc(-c2ccccc2)no1)C(=O)CN(C)S(=O)(=O)c1ccccc1`, the activation was inactive: 7.01%. For `CCNC(=S)N1CCn2cccc2C1c1ccc(F)cc1` (stereo not given), the activation was inconclusive: 158%. In the case of `COc1ccc(-c2ccc(SCC(=O)NCc3ccc4c(c3)OCO4)nn2)cc1OC`, the activation is reported as inconclusive: 183%. For `Nc1[nH]c(N=NC(=O)c2ccccc2O)c2ccccc12`, the activation was inconclusive: 554%. For `O=C(c1cc2sccc2n1Cc1ccccc1)N1CCN(c2nc3ccccc3s2)CC1`, the activation was inactive: 0%. In the case of `COc1ccc(CN2C(=O)c3cccnc3C2Nc2cc(Cl)c(OC)cc2OC)cc1` (stereo not given), the activation is reported as active: 136%. With `CCc1nnc(NC(=O)CSc2nnc(C)n2Cc2ccccc2)s1` the activation was inconclusive: 585%. For `Cn1cccc1/C=C1\CCC/C(=C\c2cccn2C)C1=O`, the activation was inconclusive: 80.6%. With `O=C(CSc1nc2ccccc2s1)N/N=C/c1ccc(C(=O)O)cc1` the activation was active: 161%. With `Cc1noc(NS(=O)(=O)c2ccc(NC(=O)CSc3n[nH]c(-c4ccccc4)n3)cc2)c1C` the activation was active: 154%. For `COc1ccc(/C(C)=N\NS(C)(=O)=O)c(OC)c1`, the activation was inconclusive: 250%. For `O=C1CCC(=O)N1OCCCCOc1ccccc1`, the activation was inconclusive: 346%. With `c1ccc(CCCNc2ncccn2)cc1` the activation was inconclusive: 400%. For `Cc1cc(Br)ccc1OCc1nc(-c2cccnc2)no1`, the activation was inconclusive: 75.3%. For `CCOC(=O)CSc1nnc(NC(=O)c2cccc(S(=O)(=O)N3CCCCC3)c2)s1`, the activation was inconclusive: 488%. With `NC(=O)CSc1nc2ccc([N+](=O)[O-])cc2[nH]1` the activation was inconclusive: 350%. With `COc1ccc(-c2cc(C(=O)NCC(C)C)no2)cc1` the activation was inactive: -5.71%. With `Cc1ccccc1N1C(=O)C(Oc2ccc(Cl)cc2)C1CNC(C)(C)C` (stereo not given) the activation was inactive: 0%. With `CCn1c(SCC(=O)N/N=C/C=C\c2ccccc2[N+](=O)[O-])nnc1-c1ccccc1` the activation was inconclusive: 158%. For `CCCCc1cc(=O)oc2cc(C)c(CN3CCCC3)c(O)c12`, the activation was inconclusive: 203%. With `Nc1c(Cl)nc(-c2ccccc2)nc1Cl` the activation was inactive: 0%. With `O=C(O)c1ccc(NCc2cccnc2)cc1` the activation was inconclusive: 77.4%. With `CCOc1ccc(NC(=O)c2ccc(S(=O)(=O)N(C)C)cc2)cc1` the activation was inconclusive: 171%. In the case of `Cc1ccnc(SCc2cc(=O)c(OC(=O)c3ccccc3)co2)n1`, the activation is reported as active: 428%. For `COc1ccc(OCC(=O)N2CCN(C(=O)COc3ccccc3)CC2)cc1`, the activation was active: 411%. For `C=C(C)c1cccc(C(C)(C)NC(=O)N2CCN(CC)CC2)c1`, the activation was inconclusive: 508%. For `CCN1CCN(c2ccc(NC(=O)c3ccc([N+](=O)[O-])o3)cc2Cl)CC1`, the activation was inconclusive: 669% [cytotoxic]. With `OCCn1c(Cl)nc2ccccc21` the activation was inconclusive: 425%. For `COc1ccc(C2=Nn3c(nnc3-c3ccccc3OC)SC2)cc1OC`, the activation was inconclusive: 200% [cytotoxic]. With `Cc1ccc(CNC(=O)C2CC2c2ccccc2)cc1` (stereo not given) the activation was inactive: 7.14%. For `O=C/C(=C\Nc1ccccn1)c1nc2cc(Cl)ccc2o1`, the activation was inconclusive: 92%. With `OC(COc1c(Cl)cc(Cl)cc1Cl)CN1CCCCC1` (stereo not given) the activation was inactive: 6.67%. With `Cc1ccc(NC(=O)CN2CCC(C(=O)c3ccc(F)cc3)CC2)cc1` the activation was inconclusive: 453%. For `O=C(NCc1cccs1)C1CC(c2ccccc2O)=NO1` (stereo not given), the activation was inconclusive: 536%. With `COc1ccccc1NC(=O)Cn1cnc2sc(C)c(S(=O)(=O)N3CCCCC3)c2c1=O` the activation was inconclusive: 421%. For `CC(C)CCn1nnnc1C(C(C)C)N1CCC(C(N)=O)CC1` (stereo not given), the activation was inconclusive: 452%. For `CCCn1cc(S(=O)(=O)CC(=O)Nc2ccc(OC)cc2OC)c2ccccc21`, the activation was inconclusive: 414%. In the case of `CC(C)(C)N(NC(=O)OCc1ccccc1)C(=O)c1ccccc1Cl`, the activation is reported as inactive: 0%.

— PubChem BioAssay AID1296 (Columbia University Molecular Screening Center, 2008)
